PubChem BioAssay AID1224830, NIAID – 2016

- Screen: 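Regulators of TLR4 signalling towards TNF-alpha in macrophage-like cells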 (primary screen)
- Cells: human THP-1 monocytic leukaemia cells, TNF dual-luciferase reporter clone, PMA-differentiated to macrophage-like cells
- Reagents: siRNA pool against human genes, 50 nM
- Duration: LPS for 4 h, given about 3 days after siRNA transfection
- Treatment: bacterial LPS (TLR4 ligand), 10 ng/ml
- Detection: 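Ratio of firefly to renilla light, scaled to the plate median and expressed as a robust z-score per replicate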
- Scale: TNF reporter robust z-score: higher = stronger TNF reporter response to LPS
- Rule for the call: 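Each well counts as active if its z-score is over 2.8 or under -1.5; controls are left without a call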
Shown is one part, drawn at random, of about 18,000 reagents. Over the whole deposit, about 2,900 (16%) were called active. 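Calls are made per well; low scores hint the gene aids the LPS response, high scores that it dampens it.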 Unmarked entries are inactive. Repeated entries: four replicate wells of each siRNA pool.

gene knocked down | TNF reporter robust z-score
GOLGA1 (golgin A1) | 3.4 (active)
GOLGA1 (golgin A1) | 0.56
GOLGA1 (golgin A1) | -1.08
GOLGA1 (golgin A1) | 0.9
TDO2 (tryptophan 2,3-dioxygenase) | -1.09
TDO2 (tryptophan 2,3-dioxygenase) | -0.49
TDO2 (tryptophan 2,3-dioxygenase) | -1.11
TDO2 (tryptophan 2,3-dioxygenase) | -0.07
CDIPT (CDP-diacylglycerol--inositol 3-phosphatidyltransferase) | 0.67
CDIPT (CDP-diacylglycerol--inositol 3-phosphatidyltransferase) | -0.31
CDIPT (CDP-diacylglycerol--inositol 3-phosphatidyltransferase) | 0.33
CDIPT (CDP-diacylglycerol--inositol 3-phosphatidyltransferase) | 0.76
CEP164 (centrosomal protein 164) | 0.08
CEP164 (centrosomal protein 164) | 0.06
CEP164 (centrosomal protein 164) | 0.63
CEP164 (centrosomal protein 164) | 2.18
ARMCX3 (armadillo repeat containing X-linked 3) | -0.61
ARMCX3 (armadillo repeat containing X-linked 3) | -1.53 (active)
ARMCX3 (armadillo repeat containing X-linked 3) | -0.66
ARMCX3 (armadillo repeat containing X-linked 3) | -0.1
LILRB1 (leukocyte immunoglobulin like receptor B1) | 1.53
LILRB1 (leukocyte immunoglobulin like receptor B1) | -0.73
LILRB1 (leukocyte immunoglobulin like receptor B1) | 0.15
LILRB1 (leukocyte immunoglobulin like receptor B1) | 0.14
RDH12 (retinol dehydrogenase 12) | -0.15
RDH12 (retinol dehydrogenase 12) | 0.22
RDH12 (retinol dehydrogenase 12) | -0.82
HK3 (hexokinase 3) | -0.28
HK3 (hexokinase 3) | 0.31
HK3 (hexokinase 3) | 0.48
HK3 (hexokinase 3) | 0
TXNIP (thioredoxin interacting protein) | -0.93
TXNIP (thioredoxin interacting protein) | -0.81
TXNIP (thioredoxin interacting protein) | -0.83
TXNIP (thioredoxin interacting protein) | 0.29
ARHGEF4 (Rho guanine nucleotide exchange factor 4) | 0.06
ARHGEF4 (Rho guanine nucleotide exchange factor 4) | 1.37
ARHGEF4 (Rho guanine nucleotide exchange factor 4) | 1.52
ARHGEF4 (Rho guanine nucleotide exchange factor 4) | 0.36
ABCC3 (ATP binding cassette subfamily C member 3) | -0.1
ABCC3 (ATP binding cassette subfamily C member 3) | -0.02
ABCC3 (ATP binding cassette subfamily C member 3) | -0.39
ABCC3 (ATP binding cassette subfamily C member 3) | 0.3
INVS (inversin) | 0.58
INVS (inversin) | 0.14
INVS (inversin) | 0.09
INVS (inversin) | -0.34
